Data as given in PubChem BioAssay AID504808 (Drosophila RNAi Screening Center, 2011).

- Assay: 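Chromatin factors that keep E2F targets switched off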 (primary screen)
- Cells: Drosophila S2 cells
- Reagents: long dsRNA against Drosophila genes
- Measurement: 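Firefly luciferase driven by E2F sites, normalised to Renilla luciferase on the same minimal promoter, measured by plate reader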
- Scale: E2F firefly: higher = more E2F reporter activity; Renilla normaliser: higher = more normaliser reporter signal
- Call rule: 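a knock-down counted as active when the firefly/Renilla E2F signal rose above 50%, a threshold chosen arbitrarily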
The screen tested about 21,000 reagents; shown is a random part of those that have a named target and a result. Over the whole deposit, 18 (0.084%) were called active. 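Raw counts without plate normalisation, one of two replicates; the ratio scores behind the calls were not deposited.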 A plus sign joins genes that one reagent is predicted to hit. The record does not give: the amount of reagent, the time to read-out.

no.	target gene	DRSC id	E2F firefly, rep 1	Renilla normaliser, rep 1	Call
1	CG1812	DRSC20557	1.91e5	6292	inactive
2	Arc42	DRSC14340	1.34e5	6965	inactive
3	Arc42	DRSC15627	1.22e5	6902	inactive
4	CG32040	DRSC08981	1.39e5	5281	inactive
5	CG14042 + SP555	DRSC02367	1.35e5	4291	inactive
6	CG14042 + SP555	DRSC03428	1.46e5	5115	inactive
7	CG34183	DRSC01099	1.38e5	6630	inactive
8	CG13579	DRSC04215	1.19e5	4602	inactive
9	ap	DRSC04917	77420	4065	inactive
10	dpn	DRSC07605	1.24e5	4171	inactive
11	CkIIbeta	DRSC20230	82184	5705	inactive
12	Pp4-19C	DRSC20559	1.31e5	5468	inactive
13	Pp4-19C	DRSC21251	1.38e5	5891	inactive
14	mtt	DRSC05106	1.27e5	4298	inactive
15	mtt	DRSC05107	1.21e5	4153	inactive
16	mtt	DRSC06753	1.39e5	5131	inactive
17	mtt	DRSC07235	1.36e5	4782	inactive
18	Arpc3A	DRSC15596	1.16e5	6299	inactive
19	CG12817	DRSC14555	1.59e5	6796	inactive
20	CG4730	DRSC15633	1.05e5	5666	inactive
21	coro	DRSC05007	70699	3301	inactive
22	CG11384	DRSC18628	54450	3553	inactive
23	Prim2	DRSC11610	67704	3252	inactive
24	Tsf2	DRSC09751	78525	3506	inactive
25	Cht7	DRSC08538	78800	3521	inactive
26	Ts	DRSC00795	1.52e5	4852	inactive
27	CG44837	DRSC10133	82518	5146	inactive
28	CG44837	DRSC10558	1.32e5	7375	inactive
29	Spn47C	DRSC07030	157	38	inactive
30	CG8202	DRSC16396	1.43e5	7257	inactive
31	CG33523	DRSC09814	83484	3275	inactive
32	dsf	DRSC03524	1.51e5	4790	inactive
33	CG17329	DRSC01926	97201	4004	inactive
34	Pvf1	DRSC20024	1.46e5	4891	inactive

Sorted by “Renilla normaliser, rep 1” (low to high): 3 of the entries above
target gene	DRSC id	E2F firefly, rep 1	Renilla normaliser, rep 1	Call
coro	DRSC05007	70699	3301	inactive
CG4730	DRSC15633	1.05e5	5666	inactive
CG12817	DRSC14555	1.59e5	6796	inactive
